# The other results are listed elsewhere or left out.
# B1: Loc1 (Escherichia coli) (protein)
# chain: APCALTNVGEQRGTYILKPLSMKGNLTAEKIENTGNIIECTDLQETTNAIKVHFLTQNALKFKVGSRHYIINFPFEYDGKKIELPGKSSYNLEEMLSAINFTIPYSIASVSDSSNTADIFPGTPFPLLFEIEVSSCTGNNTNCNSVRFNYNLNTILQVNLMTHHHHHH
# How the values were obtained:
# Assay in all cases: glycan array binding signal (z-score within array); higher = stronger binding
# Conditions in all cases: glycan notation: IUPAC condensed, linker removed
# Gal3S(b1-4)Glc = target: Gal3S(b1-4)Glc
# Outline: (§1)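 The binding signal is a Z-score computed within each array. Data were drawn from 3228 arrays in the Consortium for Functional Glycomics database, restricted to those with a known protein sequence. Scores were averaged over arrays of the same protein sequence at different concentrations or buffers, and over linkers, and negative values can be taken as non-binding.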
# Gal3S(b1-4)Glc6S = target: Gal3S(b1-4)Glc6S
# Outline: as §1
# Gal3S(b1-4)GlcNAc = target: Gal3S(b1-4)GlcNAc
# Outline: as §1
# [1] = target: Gal3S(b1-4)[Fuc(a1-3)]Glc6S
# Outline: as §1
# [2] = target: Gal3S(b1-4)[Fuc(a1-3)]GlcNAc
# Outline: as §1
# [3] = target: Gal3S(b1-4)[Fuc(a1-3)]GlcNAc6S
# Outline: as §1
# Gal3S4S(b1-4)GlcNAc = target: Gal3S4S(b1-4)GlcNAc
# Outline: as §1
# Gal3S6S(b1-4)GlcNAc = target: Gal3S6S(b1-4)GlcNAc
# Outline: as §1
# Gal3S6S(b1-4)GlcNAc6S = target: Gal3S6S(b1-4)GlcNAc6S
# Outline: as §1
# Gal4S(b1-4)GlcNAc = target: Gal4S(b1-4)GlcNAc
# Outline: as §1
# Gal4S6S(b1-4)GlcNAc = target: Gal4S6S(b1-4)GlcNAc
# Outline: as §1
# Gal6P(b1-4)GlcNAc = target: Gal6P(b1-4)GlcNAc
# Outline: as §1
# Gal6S(b1-3)GlcNAc = target: Gal6S(b1-3)GlcNAc
# Outline: as §1
# Gal6S(b1-3)GlcNAc6S = target: Gal6S(b1-3)GlcNAc6S
# Outline: as §1
# Gal6S(b1-4)Glc = target: Gal6S(b1-4)Glc
# Outline: as §1
# Gal6S(b1-4)Glc6S = target: Gal6S(b1-4)Glc6S
# Outline: as §1
# Gal6S(b1-4)GlcNAc = target: Gal6S(b1-4)GlcNAc
# Outline: as §1
# Gal6S(b1-4)GlcNAc6S = target: Gal6S(b1-4)GlcNAc6S
# Outline: as §1
# GalNAc(a1-3)Gal = target: GalNAc(a1-3)Gal
# Outline: as §1
# GalNAc(a1-3)GalNAc = target: GalNAc(a1-3)GalNAc
# Outline: as §1
# [4] = target: GalNAc(a1-3)GalNAc(b1-3)Gal(a1-4)Gal(b1-4)Glc
# Outline: as §1
# [5] = target: GalNAc(a1-3)GalNAc(b1-3)Gal(a1-4)Gal(b1-4)GlcNAc
# Outline: as §1
# GalNAc(b1-3)Gal = target: GalNAc(b1-3)Gal
# Outline: as §1
# [6] = target: GalNAc(b1-3)Gal(a1-4)Gal(b1-4)GlcNAc
# Outline: as §1
# [7] = target: GalNAc(b1-3)Gal(a1-4)Gal(b1-4)GlcNAc(b1-3)Gal(b1-4)Glc
# Outline: as §1
# [8] = target: GalNAc(b1-3)Gal(a1-6)Gal(b1-4)Glc
# Outline: as §1
# GalNAc(b1-3)GalNAc = target: GalNAc(b1-3)GalNAc
# Outline: as §1
# GalNAc(b1-3)GlcNAc = target: GalNAc(b1-3)GlcNAc
# Outline: as §1
# GalNAc(b1-4)Gal(b1-4)Glc = target: GalNAc(b1-4)Gal(b1-4)Glc
# Outline: as §1
# GalNAc(b1-4)GlcNAc = target: GalNAc(b1-4)GlcNAc
# Outline: as §1
# [9] = target: GalNAc(b1-4)GlcNAc(b1-2)Man
# Outline: as §1
# [10] = target: GalNAc(b1-4)GlcNAc(b1-2)Man(a1-3)[GalNAc(b1-4)GlcNAc(b1-2)Man(a1-6)]Man(b1-4)GlcNAc(b1-4)GlcNAc
# Outline: as §1
# [11] = target: GalNAc(b1-4)GlcNAc(b1-3)GalNAc(b1-4)GlcNAc
# Outline: as §1
# GalNAc(b1-4)GlcNAc6S = target: GalNAc(b1-4)GlcNAc6S
# Outline: as §1
# GalNAc(b1-6)GalNAc = target: GalNAc(b1-6)GalNAc
# Outline: as §1
# GalNAc3S(b1-4)GlcNAc = target: GalNAc3S(b1-4)GlcNAc
# Outline: as §1
# GalNAc3S(b1-4)GlcNAc3S = target: GalNAc3S(b1-4)GlcNAc3S
# Outline: as §1
# [12] = target: GalNAc3S(b1-4)[Fuc(a1-3)]GlcNAc
# Outline: as §1
# GalNAc4S6S(b1-4)GlcNAc = target: GalNAc4S6S(b1-4)GlcNAc
# Outline: as §1
# GalNAc6S(b1-4)GlcNAc = target: GalNAc6S(b1-4)GlcNAc
# Outline: as §1
# Glc(a1-4)Glc = target: Glc(a1-4)Glc
# Outline: as §1
# [13] = target: Glc(a1-4)Glc(a1-4)Glc(a1-4)Glc
# Outline: as §1
# Glc(a1-6)Glc(a1-6)Glc = target: Glc(a1-6)Glc(a1-6)Glc
# Outline: as §1
# [14] = target: Glc(a1-6)Glc(a1-6)Glc(a1-6)Glc
# Outline: as §1
# Glc(b1-4)Glc = target: Glc(b1-4)Glc
# Outline: as §1
binder,measurement,setting,value
B1,glycan array binding signal (z-score),Gal3S(b1-4)Glc,0.238
same,glycan array binding signal (z-score),Gal3S(b1-4)Glc6S,-0.007
same,glycan array binding signal (z-score),Gal3S(b1-4)GlcNAc,-0.465
same,glycan array binding signal (z-score),[1],-0.344
same,glycan array binding signal (z-score),[2],0.325
same,glycan array binding signal (z-score),[3],-0.418
same,glycan array binding signal (z-score),Gal3S4S(b1-4)GlcNAc,-1.24
same,glycan array binding signal (z-score),Gal3S6S(b1-4)GlcNAc,-0.067
same,glycan array binding signal (z-score),Gal3S6S(b1-4)GlcNAc6S,-0.59
same,glycan array binding signal (z-score),Gal4S(b1-4)GlcNAc,-0.558
same,glycan array binding signal (z-score),Gal4S6S(b1-4)GlcNAc,0.199
same,glycan array binding signal (z-score),Gal6P(b1-4)GlcNAc,-0.991
same,glycan array binding signal (z-score),Gal6S(b1-3)GlcNAc,0.435
same,glycan array binding signal (z-score),Gal6S(b1-3)GlcNAc6S,-0.505
same,glycan array binding signal (z-score),Gal6S(b1-4)Glc,0.962
same,glycan array binding signal (z-score),Gal6S(b1-4)Glc6S,0.298
same,glycan array binding signal (z-score),Gal6S(b1-4)GlcNAc,0.112
same,glycan array binding signal (z-score),Gal6S(b1-4)GlcNAc6S,-0.654
same,glycan array binding signal (z-score),GalNAc(a1-3)Gal,-0.715
same,glycan array binding signal (z-score),GalNAc(a1-3)GalNAc,-0.359
same,glycan array binding signal (z-score),[4],0.794
same,glycan array binding signal (z-score),[5],-0.596
same,glycan array binding signal (z-score),GalNAc(b1-3)Gal,-0.577
same,glycan array binding signal (z-score),[6],0.417
same,glycan array binding signal (z-score),[7],0.069
same,glycan array binding signal (z-score),[8],0.35
same,glycan array binding signal (z-score),GalNAc(b1-3)GalNAc,-0.455
same,glycan array binding signal (z-score),GalNAc(b1-3)GlcNAc,-0.132
same,glycan array binding signal (z-score),GalNAc(b1-4)Gal(b1-4)Glc,0.054
same,glycan array binding signal (z-score),GalNAc(b1-4)GlcNAc,0.831
same,glycan array binding signal (z-score),[9],-0.626
same,glycan array binding signal (z-score),[10],0.317
same,glycan array binding signal (z-score),[11],0.68
same,glycan array binding signal (z-score),GalNAc(b1-4)GlcNAc6S,0.365
same,glycan array binding signal (z-score),GalNAc(b1-6)GalNAc,-0.374
same,glycan array binding signal (z-score),GalNAc3S(b1-4)GlcNAc,0.667
same,glycan array binding signal (z-score),GalNAc3S(b1-4)GlcNAc3S,0.553
same,glycan array binding signal (z-score),[12],0.363
same,glycan array binding signal (z-score),GalNAc4S6S(b1-4)GlcNAc,-0.289
same,glycan array binding signal (z-score),GalNAc6S(b1-4)GlcNAc,0.258
same,glycan array binding signal (z-score),Glc(a1-4)Glc,-3.91
same,glycan array binding signal (z-score),[13],-0.712
same,glycan array binding signal (z-score),Glc(a1-6)Glc(a1-6)Glc,-0.485
same,glycan array binding signal (z-score),[14],-0.147
same,glycan array binding signal (z-score),Glc(b1-4)Glc,-0.165

# Given with bars between the fields: entries from further up
binder | measurement | setting | value
B1 | glycan array binding signal (z-score) | [1] | -0.344
same | glycan array binding signal (z-score) | [2] | 0.325
same | glycan array binding signal (z-score) | [3] | -0.418
